Data taken from article PMC7257154.
No constants are given. Whether binding was seen depends on the method and setting. In cells and extracts the contact can be indirect. Some binding calls cover weakened binding; strength is not graded here. Where a sequence is shown, tags or fusion partners need not be part of it.

Protein sequences, listed by entry. Tags and fused reporters are not part of them.
UniProt Q15796: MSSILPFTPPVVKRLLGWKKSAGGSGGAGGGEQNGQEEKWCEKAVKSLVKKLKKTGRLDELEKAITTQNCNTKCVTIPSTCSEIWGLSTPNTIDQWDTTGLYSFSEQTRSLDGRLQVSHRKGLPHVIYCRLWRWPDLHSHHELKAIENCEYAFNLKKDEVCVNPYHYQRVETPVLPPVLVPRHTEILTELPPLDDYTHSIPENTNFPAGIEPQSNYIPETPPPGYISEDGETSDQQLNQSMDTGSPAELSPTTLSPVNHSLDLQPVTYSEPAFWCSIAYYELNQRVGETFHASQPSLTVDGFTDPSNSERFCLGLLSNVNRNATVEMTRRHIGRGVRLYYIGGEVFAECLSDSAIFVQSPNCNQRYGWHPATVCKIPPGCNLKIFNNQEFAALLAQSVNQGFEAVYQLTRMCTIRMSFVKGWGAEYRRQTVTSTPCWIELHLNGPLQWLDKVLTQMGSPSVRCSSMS

Target: Flag-Smad2 (UniProt Q15796)
Test: co-IP; lysate of late gastrula Xenopus laevis embryos co-injected with RNA of the Myc-tagged construct and of the Flag-tagged Smad; precipitated with anti-Flag and Dynabeads Protein G, blot with anti-Myc; lysis buffer 150 mM NaCl, 20 mM Tris pH 7.5, 1% Nonidet P-40, 1 mM EDTA; 4 °C overnight; normal rabbit IgG as control

binding: binds
B1: Myc-Tbx2ΔN (domain or fragment, UniProt B7ZQY8 54-688)
chain: DASLAGAAEAGLHLSALGHHHQAAHLRSLKSLEPEEEVEDDPKVNLEAKELWDQFHKIGTEMVITKSGRRMFPPFKVRVSGLDKKAKYILLMDIVAADDCRYKFHNSRWMVAGKADPEMPKRMYIHPDSPATGEQWMAKPVAFHKLKLTNNISDKHGFTILNSMHKYQPRFHIVRANDILKLPYSTFRTYVFPETDFIAVTAYQNDKITQLKIDNNPFAKGFRDTGNGRREKRKQLSLPSLRMYEEQCKADRDGAESDASSCDPAPGRDSLHSPLSAEPSPLRLHRNNREEKFGADSDQELDRREIRSARSHSPVGHRSPPSSPRLEDRGKDKSTPEKKSDSPESRKDGSDSLFSSIRSLEKDKAESRRKEDSKSDPECGSLSKETFAPLMVQTDSPPHLSASHLQSLALSGLHGQQFFNPLNAGQPLFIHPGQFTMGPGAFSAMGMGHLLASMTGAGALDNGSLSSVQGATGAANPFPFHFSQHMLASQGIPMPAFGGLFPYPYTYMAAAAAAASAMPATSAATTMPRNPFLSSTRPRLRFNPYQIPVGIPPSTNLLTTGLPGSLNPGSESSKPGSSRESSPIPDTPVPKRSHSNSLSPKASMKDSINELQNIQRLVSGLESQREISPGRETPK
